Assay results reported in publication PMC12376542.
No constants are given. Whether binding was seen depends on the method and setting. Binding seen in cells or lysates may run through a third protein. Some entries that bind do so weakly or less than the wild type. For part of these data: Sequences can lack the tags named with a protein.

Protein sequences, listed by entry. Tags and fused reporters are not part of them. Lines headed by an entry give the natural chain unless they say otherwise; changes in a name come on top. Chains listed by the source or under a name are the forms on record and can include a tag or linker.
UniProt P53396: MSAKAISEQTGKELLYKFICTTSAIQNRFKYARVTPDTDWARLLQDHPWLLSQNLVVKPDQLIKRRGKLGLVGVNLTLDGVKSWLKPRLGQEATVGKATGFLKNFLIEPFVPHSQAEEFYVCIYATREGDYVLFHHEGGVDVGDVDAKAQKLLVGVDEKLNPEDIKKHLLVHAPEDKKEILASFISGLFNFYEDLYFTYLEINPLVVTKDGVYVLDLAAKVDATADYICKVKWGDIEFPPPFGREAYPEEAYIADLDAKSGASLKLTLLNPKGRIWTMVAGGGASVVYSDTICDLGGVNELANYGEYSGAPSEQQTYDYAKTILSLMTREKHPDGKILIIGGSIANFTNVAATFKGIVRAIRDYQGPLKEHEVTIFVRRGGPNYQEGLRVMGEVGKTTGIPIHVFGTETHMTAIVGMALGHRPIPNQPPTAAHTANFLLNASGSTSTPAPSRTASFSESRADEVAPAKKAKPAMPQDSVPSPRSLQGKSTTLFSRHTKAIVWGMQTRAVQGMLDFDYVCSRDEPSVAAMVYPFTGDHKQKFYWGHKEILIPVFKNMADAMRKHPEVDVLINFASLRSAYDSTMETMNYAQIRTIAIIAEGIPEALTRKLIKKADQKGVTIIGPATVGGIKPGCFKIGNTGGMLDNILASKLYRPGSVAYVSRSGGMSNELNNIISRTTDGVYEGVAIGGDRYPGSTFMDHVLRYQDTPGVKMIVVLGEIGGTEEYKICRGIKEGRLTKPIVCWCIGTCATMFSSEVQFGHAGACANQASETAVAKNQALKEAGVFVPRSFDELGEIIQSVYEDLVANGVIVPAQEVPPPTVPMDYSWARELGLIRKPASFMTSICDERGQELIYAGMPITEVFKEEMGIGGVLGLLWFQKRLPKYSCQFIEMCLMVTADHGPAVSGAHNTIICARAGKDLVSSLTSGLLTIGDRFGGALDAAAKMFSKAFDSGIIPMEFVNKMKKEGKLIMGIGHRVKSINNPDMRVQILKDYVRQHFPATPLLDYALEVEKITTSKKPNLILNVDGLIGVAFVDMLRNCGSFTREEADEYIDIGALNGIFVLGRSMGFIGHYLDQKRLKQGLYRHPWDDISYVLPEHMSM
ACLY with a nuclear export sequence (GFP‐ACLY‐NES) (P53396, form named): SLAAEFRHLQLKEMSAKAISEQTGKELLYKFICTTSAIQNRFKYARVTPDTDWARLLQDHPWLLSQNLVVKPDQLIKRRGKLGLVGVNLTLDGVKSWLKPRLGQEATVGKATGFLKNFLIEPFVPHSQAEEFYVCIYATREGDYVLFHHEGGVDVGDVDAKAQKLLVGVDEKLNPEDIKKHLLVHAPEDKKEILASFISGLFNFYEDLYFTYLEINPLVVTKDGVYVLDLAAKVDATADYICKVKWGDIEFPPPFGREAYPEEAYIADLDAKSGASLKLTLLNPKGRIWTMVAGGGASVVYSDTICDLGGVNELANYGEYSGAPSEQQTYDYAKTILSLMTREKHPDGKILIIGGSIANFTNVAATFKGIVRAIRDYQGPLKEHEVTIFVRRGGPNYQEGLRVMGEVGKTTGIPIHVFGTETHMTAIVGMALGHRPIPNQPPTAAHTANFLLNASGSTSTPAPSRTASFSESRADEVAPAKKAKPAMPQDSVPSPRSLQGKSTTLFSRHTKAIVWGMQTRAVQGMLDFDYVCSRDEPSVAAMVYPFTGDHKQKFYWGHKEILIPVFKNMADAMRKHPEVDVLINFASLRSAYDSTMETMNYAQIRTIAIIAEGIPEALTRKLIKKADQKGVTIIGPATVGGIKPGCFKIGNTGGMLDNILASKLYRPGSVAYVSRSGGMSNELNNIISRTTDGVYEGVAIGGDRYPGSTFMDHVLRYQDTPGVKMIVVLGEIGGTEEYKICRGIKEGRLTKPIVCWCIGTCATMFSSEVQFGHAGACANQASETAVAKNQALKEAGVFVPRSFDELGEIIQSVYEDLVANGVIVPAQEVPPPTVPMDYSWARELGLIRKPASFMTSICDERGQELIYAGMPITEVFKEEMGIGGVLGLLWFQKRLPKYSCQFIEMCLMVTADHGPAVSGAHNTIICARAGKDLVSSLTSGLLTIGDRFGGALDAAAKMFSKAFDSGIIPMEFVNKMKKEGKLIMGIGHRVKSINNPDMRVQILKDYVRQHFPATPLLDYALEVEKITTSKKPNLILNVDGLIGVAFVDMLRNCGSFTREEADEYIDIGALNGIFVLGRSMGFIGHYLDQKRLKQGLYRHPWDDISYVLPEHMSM
UniProt Q09472: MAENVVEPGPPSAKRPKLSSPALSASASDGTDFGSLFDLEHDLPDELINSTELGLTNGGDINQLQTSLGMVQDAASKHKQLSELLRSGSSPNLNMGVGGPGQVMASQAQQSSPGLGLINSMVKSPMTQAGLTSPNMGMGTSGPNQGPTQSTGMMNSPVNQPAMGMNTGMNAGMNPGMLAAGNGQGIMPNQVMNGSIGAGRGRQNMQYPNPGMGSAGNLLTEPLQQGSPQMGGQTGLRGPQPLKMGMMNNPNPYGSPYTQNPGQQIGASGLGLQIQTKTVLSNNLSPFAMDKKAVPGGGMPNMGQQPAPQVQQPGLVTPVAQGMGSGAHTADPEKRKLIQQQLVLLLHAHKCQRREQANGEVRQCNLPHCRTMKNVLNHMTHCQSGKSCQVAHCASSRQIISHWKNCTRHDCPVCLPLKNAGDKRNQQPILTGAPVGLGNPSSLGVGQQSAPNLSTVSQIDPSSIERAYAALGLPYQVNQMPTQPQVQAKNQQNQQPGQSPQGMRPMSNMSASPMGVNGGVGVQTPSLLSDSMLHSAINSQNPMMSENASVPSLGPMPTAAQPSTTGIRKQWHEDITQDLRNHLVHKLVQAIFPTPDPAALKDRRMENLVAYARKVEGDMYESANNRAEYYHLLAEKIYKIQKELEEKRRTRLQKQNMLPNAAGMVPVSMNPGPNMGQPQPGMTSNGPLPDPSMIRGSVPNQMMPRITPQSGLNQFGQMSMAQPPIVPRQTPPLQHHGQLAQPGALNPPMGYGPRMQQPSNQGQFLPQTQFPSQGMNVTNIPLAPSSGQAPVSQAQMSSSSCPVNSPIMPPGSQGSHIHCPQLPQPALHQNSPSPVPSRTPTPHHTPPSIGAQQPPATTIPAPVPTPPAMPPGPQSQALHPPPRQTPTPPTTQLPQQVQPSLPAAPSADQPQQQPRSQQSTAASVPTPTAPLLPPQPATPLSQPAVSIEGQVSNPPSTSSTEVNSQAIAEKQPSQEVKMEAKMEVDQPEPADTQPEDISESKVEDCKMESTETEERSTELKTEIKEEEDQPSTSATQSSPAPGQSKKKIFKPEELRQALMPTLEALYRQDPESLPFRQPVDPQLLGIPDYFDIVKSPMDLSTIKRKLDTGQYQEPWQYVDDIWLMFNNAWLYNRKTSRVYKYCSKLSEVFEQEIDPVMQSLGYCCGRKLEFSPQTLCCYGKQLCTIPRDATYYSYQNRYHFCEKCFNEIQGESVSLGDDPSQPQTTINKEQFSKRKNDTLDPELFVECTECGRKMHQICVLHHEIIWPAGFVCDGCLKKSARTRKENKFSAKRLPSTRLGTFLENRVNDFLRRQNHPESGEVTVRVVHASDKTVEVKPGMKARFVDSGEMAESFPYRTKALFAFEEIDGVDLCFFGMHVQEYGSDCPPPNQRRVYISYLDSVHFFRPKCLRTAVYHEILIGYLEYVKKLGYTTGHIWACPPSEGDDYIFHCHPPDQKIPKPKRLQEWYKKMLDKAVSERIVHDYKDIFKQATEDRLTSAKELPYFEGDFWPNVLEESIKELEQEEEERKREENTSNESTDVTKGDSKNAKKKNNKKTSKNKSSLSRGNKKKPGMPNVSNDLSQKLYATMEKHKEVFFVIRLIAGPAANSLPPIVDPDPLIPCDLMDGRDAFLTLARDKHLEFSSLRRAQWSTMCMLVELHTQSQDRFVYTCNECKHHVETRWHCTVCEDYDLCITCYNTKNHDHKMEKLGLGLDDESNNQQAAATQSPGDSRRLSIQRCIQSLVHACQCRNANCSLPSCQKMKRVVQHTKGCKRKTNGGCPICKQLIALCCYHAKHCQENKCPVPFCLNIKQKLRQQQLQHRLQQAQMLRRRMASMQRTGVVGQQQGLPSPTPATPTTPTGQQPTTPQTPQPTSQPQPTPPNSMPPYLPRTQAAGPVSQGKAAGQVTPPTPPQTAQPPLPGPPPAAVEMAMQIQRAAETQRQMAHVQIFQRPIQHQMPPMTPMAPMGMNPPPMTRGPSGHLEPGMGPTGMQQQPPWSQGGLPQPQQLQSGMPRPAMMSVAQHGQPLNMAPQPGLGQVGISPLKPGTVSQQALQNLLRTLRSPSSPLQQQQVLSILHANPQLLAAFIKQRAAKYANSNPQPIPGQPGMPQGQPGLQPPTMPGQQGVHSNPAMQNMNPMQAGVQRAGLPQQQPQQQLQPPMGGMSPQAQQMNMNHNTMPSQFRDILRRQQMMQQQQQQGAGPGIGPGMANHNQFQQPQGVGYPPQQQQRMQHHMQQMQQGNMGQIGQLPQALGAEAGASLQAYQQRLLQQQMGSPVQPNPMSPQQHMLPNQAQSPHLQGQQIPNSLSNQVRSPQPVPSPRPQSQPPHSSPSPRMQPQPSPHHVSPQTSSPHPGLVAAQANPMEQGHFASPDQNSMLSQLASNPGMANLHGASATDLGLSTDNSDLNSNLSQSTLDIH

Key:
[1] = molecular target: Exogenous wild-type ACLY (FLAG-ACLY) (human) (UniProt P53396); assay: co-IP; HEK293T cells, transiently transfected for 48 h; IP lysis buffer; anti‐Flag magnetic beads overnight at 4 °C; western blot
[2] = molecular target: ACLY with a nuclear export sequence (GFP‐ACLY‐NES) (human) (UniProt P53396); assay: as above
[3] = molecular target: Exogenous wild-type ACLY (FLAG-ACLY) (human) (UniProt P53396); assay: co-IP; NIH3T3 cells, transiently transfected for 48 h; IP lysis buffer; anti‐Flag magnetic beads overnight at 4 °C; western blot
[4] = molecular target: ACLY with a nuclear export sequence (GFP‐ACLY‐NES) (human) (UniProt P53396); assay: as above
[5] = molecular target: T1, ATP‐citrate lyase (ACLY), endogenous in mouse embryos (mouse (endogenous in 8-cell embryos)) (UniProt Q91V92); assay: proximity ligation; Duolink In Situ PLA on fixed (4% PFA) mouse 8‐cell stage embryos; endogenous proteins
T1 sequence: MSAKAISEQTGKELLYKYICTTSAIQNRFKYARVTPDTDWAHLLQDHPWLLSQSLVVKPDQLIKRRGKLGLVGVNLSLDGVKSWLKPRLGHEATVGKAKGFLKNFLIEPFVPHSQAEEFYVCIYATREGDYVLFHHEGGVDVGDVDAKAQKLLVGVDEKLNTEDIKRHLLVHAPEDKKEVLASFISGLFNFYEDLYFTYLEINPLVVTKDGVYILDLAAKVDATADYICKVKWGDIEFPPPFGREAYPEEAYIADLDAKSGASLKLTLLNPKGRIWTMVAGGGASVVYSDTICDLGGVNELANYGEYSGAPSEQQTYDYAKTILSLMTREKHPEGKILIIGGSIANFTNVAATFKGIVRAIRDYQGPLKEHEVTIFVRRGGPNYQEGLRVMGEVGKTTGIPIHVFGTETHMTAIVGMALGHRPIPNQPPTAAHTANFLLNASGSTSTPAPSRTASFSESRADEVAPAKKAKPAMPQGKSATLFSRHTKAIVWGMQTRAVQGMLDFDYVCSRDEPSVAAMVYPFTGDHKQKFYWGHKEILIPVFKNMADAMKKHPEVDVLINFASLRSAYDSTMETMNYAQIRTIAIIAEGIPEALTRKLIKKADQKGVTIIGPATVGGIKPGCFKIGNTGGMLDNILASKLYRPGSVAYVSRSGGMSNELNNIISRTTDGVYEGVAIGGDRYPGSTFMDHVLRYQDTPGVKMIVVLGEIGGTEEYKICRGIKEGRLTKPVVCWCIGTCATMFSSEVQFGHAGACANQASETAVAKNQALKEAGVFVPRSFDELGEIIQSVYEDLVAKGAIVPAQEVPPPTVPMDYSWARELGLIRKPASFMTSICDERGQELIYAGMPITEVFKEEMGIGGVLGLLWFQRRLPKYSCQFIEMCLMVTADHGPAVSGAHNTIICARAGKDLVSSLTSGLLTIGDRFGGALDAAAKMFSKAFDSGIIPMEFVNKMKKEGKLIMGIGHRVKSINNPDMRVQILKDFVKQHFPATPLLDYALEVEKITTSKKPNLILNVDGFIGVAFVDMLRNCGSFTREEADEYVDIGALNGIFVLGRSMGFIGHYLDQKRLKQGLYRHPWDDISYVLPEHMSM

Measured: binding

Exogenous HAT1 (tagged, from human full-length cDNA) (from UniProt O14929 1-419) (enzyme)
not listed: [5]
binds: all other assays above

HA‐P300 (from UniProt Q09472 1-2414) (enzyme)
not listed: [5]
binds: all other assays above

B1: histone acetyltransferase 1 (HAT1), endogenous in mouse embryos (enzyme, UniProt Q8BY71 1-416)
chain: MAALEKFLVEYKSAVEKKLAEYKCNTNTAIELKLVRFPEDLENDIRTFFPEYTHQLFGDDETAFGYKGLKILLYYIAGSLSTLFRVEYSSKVDENFDCVEADDVEGKIRQIIPPGFCTNTNDFLSLLEKETNFKPFGTLLHTYTVPSQTGGETFTFQIHKADMTCRGFREYHERLQTFLMWFIETASFIDVDDERWHYFLVFEKYNKDGATLFATVGYMTVYNYYVYPDKTRPRVSQMLILTPFQGQGHGAQLLETVHRYYISFPTVLDITAEDPSRSYLKLRDFVLVKFCQFLPSFSRERLLQGFSEDMAIQAQQMFKINKQHARRVYEILRLLVTDMSDAEQYRSYRLDIKRRLISPYKKKQRDLAKMKKCLRPEELTNQMNQIEISVQHEQLEERFQELVEDYRRVIERLAQE
binds: [5]
